Data as given in PubChem BioAssay AID2685 (National Center for Advancing Translational Sciences (NCATS), 2010).
The list shows a part of the results. The main result of the screen is listed elsewhere. These columns were measured beside it and carry no call. Compounds called inactive in the main read-out are mostly missing here. Words in brackets tell the shape of the fitted curve; partial curves, single points and poor fits give uncertain potencies.

Assay: qHTS Assay for Lipid Storage Modulators in Drosophila S3 Cells;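 as to cell number change: cells counted by Cell Tracker Red CMTPX staining in the red channel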
Details: BODIPY lipid droplet fluorescence, 18-24 h; for cell number change: measured here: cell count max response, cells fed with added oleic acid
Outline: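 Drosophila S3 cells loaded with oleic acid (400 uM, as added) and compounds at several concentrations; lipid droplets imaged by 488-nm laser-scanning cytometry, 500–530 nm intensity and object ratio to cell channel. Percent activity normalized to 20 uM Triacsin C.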

[1] = measured here: lipid fluorescence (Fed channel) AC50, cells fed with added oleic acid
[2] = measured here: cell number channel AC50, cells fed with added oleic acid

Question: With Nc1ccccc1N=Cc1ccc(-c2cccc(Cl)c2)o1 as the compound, how does the cell number change read?
Answer: -25.2%

Question: What about the AC50 [1] of the same compound?
Answer: 29.1 µM [falling, single point]

Question: With COc1ccc(C(Sc2ccccc2)c2ccccc2)cc1OC (stereo not drawn) as the compound, how does the AC50 [2] read?
Answer: 0.00517 µM [falling, full curve, poor fit]

Question: And the AC50 [1]?
Answer: 0.00461 µM [falling, full curve, poor fit]

Question: Which results are given for CC(C)(C)c1ccc(C(=O)NCCC(=O)N2CCC3(CC2)NCCc2[nH]cnc23)cc1?
Answer: cell number change: 17.2%; AC50 [1]: 2.59 µM [rising, full curve]

Question: Which cell number change does the source give for NC(=O)CSc1nnc(-c2ccc(S(=O)(=O)N3CCCC3)cc2)n1CC1CCCO1 (stereo not drawn) here?
Answer: 8.09%

Question: What about the AC50 [1] of the same compound?
Answer: 0.651 µM [falling, full curve]

Question: Which cell number change does the source give for COc1ccc(S(=O)(=O)N2CCOCC2)cc1NC(=O)CN1CCC(Cc2ccccc2)CC1 here?
Answer: 21.7%

Question: What about the AC50 [1] of the same compound?
Answer: 2.06 µM [rising, partial curve]

Question: Which results are given for CC1=CC(C)(C)Nc2ccc(OC(=O)C(Cc3ccccc3)N3C(=O)C4CCCCC4C3=O)cc21 (stereo not drawn)?
Answer: cell number change: -10.4%; AC50 [1]: 4.61 µM [rising, single point]

Question: With Cc1sc2c(c1C)CN(C(C)(C)C)CN2C(=O)c1ccccc1 as the compound, how does the cell number change read?
Answer: 13.5%

Question: What about the AC50 [1] of the same compound?
Answer: 6.51 µM [rising, single point]

Question: What does the source list for O=C(CN1CCN(C(c2ccccc2)c2ccccc2)CC1)N1CCOCC1?
Answer: cell number change: 2.39%; AC50 [1]: 0.326 µM [falling, full curve, poor fit]

Question: Which results are given for Cc1cc(NC(=O)CCCS(=O)(=O)c2nc(-c3cccs3)cc(C(F)(F)F)n2)no1?
Answer: cell number change: -56.6%; AC50 [2]: 13 µM [falling, partial curve]; AC50 [1]: 2.59 µM [falling, partial curve]

Question: Which cell number change does the source give for NC(=O)C1CCN(C2OC(=O)c3ccccc32)CC1 (stereo not drawn) here?
Answer: -8.68%

Question: And the AC50 [1]?
Answer: 0.103 µM [rising, full curve, poor fit]

Question: With O=C(Nc1ccc2c(c1)OCO2)c1cc(-c2cccnc2)nc2ccccc12 as the compound, how does the AC50 [1] read?
Answer: 5.8 µM [rising, single point]

Question: For Cc1ccc(C(=O)N2CCCC(C(=O)c3cc(F)ccc3F)C2)s1 (stereo not drawn), which cell number change is on record?
Answer: -17.2%

Question: Which results are given for O=C(CN1C(=O)c2ccccc2C1=O)N1CCN(c2ccccc2)CC1?
Answer: cell number change: -1.88%; AC50 [1]: 18.4 µM [rising, single point]

Question: With C/C=C/Cn1c(SCc2ccccc2)nc2c1c(=O)[nH]c(=O)n2C as the compound, how does the cell number change read?
Answer: -19.5%

Question: Which cell number change does the source give for O=C(/C=C/c1ccco1)Nc1cccc2cccnc12 here?
Answer: -0.601%

Question: What does the source list for C=CCNc1cnn(CC(C)=O)c(=O)c1Br?
Answer: cell number change: -66.6%; AC50 [2]: 29.1 µM [falling, single point]

Question: For CC1CC(C)CN(S(=O)(=O)c2ccc(C(=O)N3CCN(c4ccccc4)CC3)cc2)C1 (stereo not drawn), which cell number change is on record?
Answer: -34.2%

Question: What about the AC50 [2] of the same compound?
Answer: 29.1 µM [falling, single point]

Question: What does the source list for O=C1CC(=O)N(c2cccc(F)c2)N1?
Answer: AC50 [2]: 3.66 µM [falling, partial curve]; AC50 [1]: 4.11 µM [falling, single point]

Question: Which cell number change does the source give for O=C(Cc1ccc(O)cc1)N/N=C/c1cccnc1 here?
Answer: 32.1%

Question: And the AC50 [2]?
Answer: 23.1 µM [rising, single point]

Question: What about the AC50 [1] of the same compound?
Answer: 18.4 µM [rising, partial curve]

Question: With CC(=O)N1CCN(c2ccc(NC(=O)c3cccc(Cl)c3)cc2)CC1 as the compound, how does the cell number change read?
Answer: 16.1%

Question: What does the source list for CCN(CC)S(=O)(=O)c1ccc2oc(C(=O)NCc3ccc(F)cc3)c(C)c2c1?
Answer: cell number change: -8.02%; AC50 [1]: 2.91 µM [rising, partial curve]

Question: With CC(C)Cc1nnc(NC(=O)CCC(=O)N2CCC(C)CC2)s1 as the compound, how does the cell number change read?
Answer: -12.3%

Question: With Cc1cccc(C2=N/C(=C\c3cccnc3)C(=O)O2)c1 as the compound, how does the cell number change read?
Answer: 40.1%

Question: What about the AC50 [2] of the same compound?
Answer: 5.17 µM [rising, full curve, poor fit]

Question: What about the AC50 [1] of the same compound?
Answer: 29.1 µM [rising, single point]

Question: Which cell number change does the source give for COc1ccc(N(CC(=O)NC2CCCCC2)S(=O)(=O)c2cccnc2)cc1 here?
Answer: -16.5%

Question: Which cell number change does the source give for O=C(Nc1ccc(-c2nc3ccccc3[nH]2)cc1)c1cccc(N2C(=O)CCC2=O)c1 here?
Answer: 3.29%

Question: What about the AC50 [1] of the same compound?
Answer: 0.411 µM [rising, single point]

Question: For O=C(COC(=O)/C=C/c1ccccc1[N+](=O)[O-])NCC(F)(F)F, which cell number change is on record?
Answer: 2.44%

Question: With COc1cc(/C=C/C(=O)OCC(=O)NCCc2ccccc2)ccc1OC(F)F as the compound, how does the AC50 [2] read?
Answer: 0.00651 µM [rising, full curve, poor fit]

Question: For O=C(/C(=C\c1ccccc1)c1nc2ccccc2[nH]1)c1ccc(Cl)cc1, which cell number change is on record?
Answer: -61.7%

Question: And the AC50 [2]?
Answer: 14.6 µM [falling, partial curve]

Question: And the AC50 [1]?
Answer: 8.2 µM [falling, partial curve]

Question: Which cell number change does the source give for O=C(CN1CCN(C(=O)c2cncn2-c2ccccc2)CC1)Nc1ccccc1Cl here?
Answer: -2.54%

Question: And the AC50 [1]?
Answer: 13 µM [rising, partial curve, poor fit]

Question: Which cell number change does the source give for CN1CCN(C2CC(=O)N(CCc3ccccc3)C2=O)CC1 (stereo not drawn) here?
Answer: -23.9%

Question: What does the source list for O=C(/C=C/c1ccccc1Cl)OCC(=O)c1ccc[nH]1?
Answer: cell number change: -14.8%; AC50 [1]: 6.51 µM [falling, single point]

Question: Which cell number change does the source give for CCCCC(SCC(=O)Nc1ccccc1)C(=O)O (stereo not drawn) here?
Answer: -85.3%

Question: What about the AC50 [1] of the same compound?
Answer: 29.1 µM [falling, single point]

Question: Which AC50 [1] does the source give for CCN(Cc1ccccc1)S(=O)(=O)c1ccc2c(c1)NC(=O)CS2 here?
Answer: 29.1 µM [falling, single point]

Question: With COc1cc(C(=O)NCCC(=O)NCCN2CCOCC2)cc(OC)c1OC as the compound, how does the cell number change read?
Answer: 1.91%

Question: What about the AC50 [1] of the same compound?
Answer: 2.91 µM [falling, full curve]

Question: What does the source list for COc1ccccc1CN1CN(S(=O)(=O)c2ccccc2)c2nc3ccccc3nc21?
Answer: cell number change: 0.534%; AC50 [1]: 29.1 µM [rising, single point]

Question: Which cell number change does the source give for COc1ccc(Nc2ccc(OC)cc2)cc1 here?
Answer: 0.0184%

Question: What about the AC50 [1] of the same compound?
Answer: 29.1 µM [falling, single point]

Question: Which cell number change does the source give for COC(CNc1ncnc2c1cnn2C)OC here?
Answer: -11.2%

Question: What about the AC50 [1] of the same compound?
Answer: 0.00461 µM [rising, full curve, poor fit]

Question: For COc1ccc(C(CNC(=O)C(C)(C)Oc2ccc(Cl)cc2)N2CCCC2)cc1 (stereo not drawn), which cell number change is on record?
Answer: -4.41%

Question: What does the source list for O=C(O)CC(=O)Nc1ccccc1C(=O)O?
Answer: cell number change: -35.3%; AC50 [1]: 0.00517 µM [falling, full curve, poor fit]

Question: What does the source list for CCC(C)(C)n1nnnc1C(c1cc2cc(C)cc(C)c2[nH]c1=O)N1CCN(Cc2ccc3c(c2)OCO3)CC1 (stereo not drawn)?
Answer: cell number change: 115%; AC50 [2]: 4.11 µM [rising, partial curve]; AC50 [1]: 4.11 µM [rising, single point]
